Data from US20040177664A1, “Production of a high quality organic-based fertilizer” (priority 2003, published 2004).

Assay: Odor reduction of municipal sludge, headspace GC-MS and odor
Details: for Peak area for line 94 at retention time of 1.93 and 1.74 minutes: second series, 5.00 g sludge no dilution, 0.5 ml or 0.5 g addition; for Notes (odor): 60.0° C.
Description: Effectiveness of the treatments was evaluated through the GC-MS analysis of the treated and untreated sludge. Sludge (5.0 g) was placed into a 44 ml vial. After heating to 60.0° C. for 5.0 minutes a probe of gas was taken from the vial (0.5 ml) and injected into the GC-MS.
Hewlett-Packard (HP) GC 5890 coupled with an HP 5971 mass-spectrometer. The system incorporates an electron beam as an ion source. Ions are filtered through a glass with silver-coated quadruples.
A DB5MS capillary chromatographic column is used and the MS is tuned with PFTBA in a Scan Mode (tune file: BFB.U).
For further characterization the peak area of the 94-ion was selected. The calibration was performed using dimethyldisulfide. A calibration curve is presented in the attached data.
In the first series, 6.00 g (±0.05) of the sludge with the addition of 10.0 ml of distilled water was used. For the treatment, we used potential oxidizers such as KNO3 and H2SO4 in different combinations.
In the second series we used 5.00 g (±0.01) of the sludge with no dilution. For the treatment we used additions of hydrogen peroxide (30%) −0.5 ml, sulfuric acid (98%), −0.5 ml, a combination of hydrogen peroxide and 0.5 ml and sulfuric acid 0. ml, ammonia (54%) −0.5ml, calcium hypochlorite −0.5 g.
The effectiveness of the additions is evaluated through decreasing the area of 94-ion signal with retention time around 1.94 minutes. We also investigated the influence of time.
The samples of the sludge (approximately 5.0 g) were placed into the vials and treated with additions of CaOCl2 at a temperature of 60.0° C.
The reproducibility of the treatment with calcium hypochlorite Ca(OCl)2 (CHC) on sludge was investigated. In all experiments, 5.0 g of sludge in a special vial was treated with an addition of percent of weight of odor reducer (0.05 g). After heating to 60.0° C. for 5.0 minutes, a sample of vapor over the sludge was taken and injected into the GC/MS. Total Ion Chromatograph signal with retention time […] were used for evaluation of the treatment corresponding to dimethylsulfide).

Structure (SMILES)	Peak area for line 94 at retention time of 1.93 and 1.74 minutes	lowest effective concentration for eliminating the odor (Phase III) [% weight]	dimethyldisulfide content after addition (0.5% weight, from 3.5 ug/L) [µg/L]	Notes (odor) (5.0025 g sludge, 0.0513 g CaOCl2, 5 min)	Notes (odor) (5.0716 g sludge, 0.0248 g CaOCl2, 10 min)	Notes (odor) (5.0776 g sludge, 0.0256 g CaOCl2, 5 min)	Notes (odor) (5.0803 g sludge, 0.0257 g CaOCl2, 2 min)	amount needed for odor elimination (Phase II conclusion) (60° C., 5.0 minutes) [%]
O=S(=O)(O)O [Trial H2SO4, sulfuric acid]	8,400 integration units (IU)							
[Ca+2].[O-]Cl.[O-]Cl [CaOCl2, calcium hypochlorite]	4,860 integration units (IU)	0.5	0.5 to 0.6	No Odor	Odor	Odor	Odor	1.0
